± gives the uncertainty stated by the source. Many entries were measured with a wide error.
Assay: self-splicing fitness, log relative to wild type (ln ratio); higher = more splicing; Tetrahymena group I intron in knt gene, E. coli kanamycin selection, DiMSum; sequences stand for … in CUCUCU…GGAGGGAAAAGUUAUCAGGCAUGCACCUGGUAGCUAGUCUUUAAACCAAUAGAUUGCAUCGGUUUAAAAGGCAAGACCGUCAAAUUGCGGGAAAGGGGUCAACAGCCGUUCAGUACCAAGUCUCAGGGGAAACUUUGAGAUGGCCUUGCAAAGGGUAUGGUAAUAAGCUGACGGACAUGGUCCUAACCACGCAGCCAAGUCCUAAGUCAACAGAUCUUCUGUUGAUAUGGAUGCAGUUCACAGACUAAAUGUCGGUCGGGGAAGAUGUAUUCUUCUCAUAAGAUAUAGUCGGACCUCUCCUUAAUGGGAGCUAGCGGAUGAAGUGAUGCAACACUGGAGCCGCUGGGAACUAAUUUGUAUGCGAAAGUAUAUUGAUUAGUUUUGGAGUACUCGUGGUCG
Procedure, shortened: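 Fitness was computed with DiMSum as the error-weighted combination of replicate fold changes, kanamycin versus none, each normalised to wild type. The library randomised all eight intron nucleotides of the P1ex region, with the intron placed in the knt kanamycin-resistance gene on pET-22b(+) in E. coli BL21(DE3). Six replicate transformations were grown overnight at 37°C or 30°C on LB agar with or without 25 μg/mL kanamycin, plus 100 μg/mL carbenicillin, 50 μM IPTG and 0.2% rhamnose. Pooled colonies were amplicon-sequenced on an Illumina HiSeq 2500.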

Sequence | self-splicing fitness (ln) (30 °C) | self-splicing fitness (ln) (37 °C)
GUACAGCAAUAUUACGUACC | -3.16 ± 0.77 | 
CGAGAGCAAUAUUACGGACC |  | -1.77 ± 0.54
UGACAGCAAUAUUACGGGCC | -3.34 ± 0.22 | -2.23 ± 0.27
UUGAAGCAAUAUUACGCUGC | -3.03 ± 1.1 | 
GGUAAGCAAUAUUACGCGCU | -2.52 ± 0.68 | -1.11 ± 0.54
UUCUAGCAAUAUUACGCUGC | -3.81 ± 1 | 
GUUGAGCAAUAUUACGCAAC |  | -1.03 ± 0.93
CCCCAGCAAUAUUACGAAUA | -4.43 ± 0.72 | 
UUGGAGCAAUAUUACGAUCU | -2.06 ± 0.66 | -2.47 ± 1.1
GACGAGCAAUAUUACGUUAC | -4.22 ± 0.52 | 
CUUAAGCAAUAUUACGGACG | -0.229 ± 0.085 | 0.228 ± 0.12
AGGAAGCAAUAUUACGCUGU |  | -0.0487 ± 0.53
GUGGAGCAAUAUUACGCCCG | -3.06 ± 0.54 | -1.76 ± 0.81
CAAUAGCAAUAUUACGAGCC | -2.42 ± 0.9 | -2.11 ± 0.64
GCGGAGCAAUAUUACGCGAC | -2.97 ± 0.77 | 
GUGUAGCAAUAUUACGAGCG | -3.9 ± 0.53 | 
UAGCAGCAAUAUUACGCACC | -0.936 ± 0.16 | -0.423 ± 0.16
UAUUAGCAAUAUUACGAUGC | -1.96 ± 1.2 | -2.48 ± 0.77
GCGUAGCAAUAUUACGUCCC |  | -0.216 ± 0.68
CGAUAGCAAUAUUACGUUUC | -4.38 ± 0.6 | 
AAUGAGCAAUAUUACGCCAA | -2.51 ± 0.62 | -1.13 ± 0.5
AUCUAGCAAUAUUACGACUC |  | -0.731 ± 0.52
GUGGAGCAAUAUUACGAGCU | -3.17 ± 0.26 | -2.01 ± 0.28
UCCGAGCAAUAUUACGAUAA | -2 ± 0.22 | -2.41 ± 0.32

Sequence | self-splicing fitness (ln) (30 °C) | self-splicing fitness (ln) (37 °C)
UGCGAGCAAUAUUACGAAAG | -2.87 ± 0.29 | -2.87 ± 0.43
AAGAAGCAAUAUUACGUAGG | -2.09 ± 0.082 | -1.14 ± 0.12
AAAUAGCAAUAUUACGUAUA | -1.63 ± 0.12 | -0.558 ± 0.12
AGUUAGCAAUAUUACGCCUC | -3.92 ± 1 | -2.24 ± 0.55
AAGCAGCAAUAUUACGAGGU | -3.55 ± 0.16 | -2.65 ± 0.19
CCGGAGCAAUAUUACGGUCA |  | -3.18 ± 0.52
CUCGAGCAAUAUUACGCAAU |  | -3.22 ± 0.61
GCUGAGCAAUAUUACGAAGU | -3 ± 0.54 | 
CCAGAGCAAUAUUACGCUUA |  | -2.98 ± 0.61
CUCGAGCAAUAUUACGCUAC |  | -1.6 ± 0.83
GAGGAGCAAUAUUACGAGAU |  | -3.52 ± 0.6
AGGGAGCAAUAUUACGAAAC | 0.285 ± 1.1 | -1.98 ± 0.67
GAGGAGCAAUAUUACGACCU |  | -0.979 ± 0.59
GCGGAGCAAUAUUACGCUUA | 1.37 ± 1.1 | 
GUUGAGCAAUAUUACGAGGU |  | -3.15 ± 0.52
UCUGAGCAAUAUUACGGAUC | -4.21 ± 0.59 | -2.98 ± 1.1
AUGGAGCAAUAUUACGACCA | -2.09 ± 1.4 | -0.897 ± 0.61
UGGAAGCAAUAUUACGGGUC | -4.55 ± 0.51 | 
CCGGAGCAAUAUUACGGAGG | -4.17 ± 0.51 | 
AUGGAGCAAUAUUACGCCCC | -4.04 ± 1.1 | -1.69 ± 1.2
GAGCAGCAAUAUUACGAGAG | -4.27 ± 1 | 
CGGUAGCAAUAUUACGACAC | -2.19 ± 0.66 | -0.595 ± 1.4
UUGGAGCAAUAUUACGACUA |  | -0.0758 ± 0.64
GACAAGCAAUAUUACGAGAG | -3.18 ± 0.17 | -2.96 ± 0.21

Sequence | self-splicing fitness (ln) (30 °C) | self-splicing fitness (ln) (37 °C)
CGACAGCAAUAUUACGCCGC | -4.26 ± 1 | 
GGUUAGCAAUAUUACGCAAC | -3 ± 0.75 | 
UAUCAGCAAUAUUACGAGUC | -4.5 ± 0.6 | 
CUCGAGCAAUAUUACGUUAC | -4.9 ± 0.72 | 
CAGGAGCAAUAUUACGUCUC | -5.49 ± 1 | 
UGAGAGCAAUAUUACGGAUA | -3.85 ± 0.73 | -2.5 ± 0.26
AUAUAGCAAUAUUACGGAAC | -2.89 ± 0.41 | -1.79 ± 0.58
GGCUAGCAAUAUUACGCCAG |  | -2.16 ± 0.56
UUUUAGCAAUAUUACGGCAC | -2.85 ± 0.62 | -0.642 ± 0.28
GAACAGCAAUAUUACGAUUG | -1.62 ± 0.082 | -1.26 ± 0.11
CGCGAGCAAUAUUACGGUGC | -3.57 ± 0.52 | 
CCCGAGCAAUAUUACGAACG | -1.87 ± 0.58 | 
UGCGAGCAAUAUUACGCAUG | -2.43 ± 0.56 | 
GUCCAGCAAUAUUACGCAGC | -0.998 ± 0.17 | 0.198 ± 0.14
GUGGAGCAAUAUUACGGAUG |  | -2.58 ± 0.62
UCUGAGCAAUAUUACGGUUC | -3.5 ± 0.61 | 
AACUAGCAAUAUUACGAGAC |  | -3.27 ± 0.6
AAGUAGCAAUAUUACGUACU | -0.863 ± 0.19 | -0.429 ± 0.19
UUGAAGCAAUAUUACGGGCG | -0.128 ± 0.061 | 0.407 ± 0.084
CCGGAGCAAUAUUACGCGCC | -1.89 ± 0.32 | 
GAAUAGCAAUAUUACGCUUC | -4.01 ± 0.53 | 
AUCAAGCAAUAUUACGUUGC | -3.84 ± 0.18 | -2 ± 0.15
UUUUAGCAAUAUUACGCGAC |  | -2.43 ± 0.54
UACCAGCAAUAUUACGCUGC | -5.04 ± 1 | -3.23 ± 0.6

Looked up above:
In self-splicing fitness (ln) (37 °C), CUCGAGCAAUAUUACGCUAC shows -1.6 ± 0.83
In self-splicing fitness (ln) (30 °C), GCGGAGCAAUAUUACGCUUA shows 1.37 ± 1.1
In self-splicing fitness (ln) (30 °C), CUCGAGCAAUAUUACGUUAC shows -4.9 ± 0.72
In self-splicing fitness (ln) (30 °C), GAAUAGCAAUAUUACGCUUC shows -4.01 ± 0.53

(list continues)

Sequence | self-splicing fitness (ln) (30 °C) | self-splicing fitness (ln) (37 °C)
GGACAGCAAUAUUACGCUGC |  | -2.48 ± 0.76
GGUGAGCAAUAUUACGUAUA | -3.76 ± 0.29 | -3.25 ± 0.37
CUUUAGCAAUAUUACGCAUC | -4.41 ± 0.59 | 
GCGGAGCAAUAUUACGAACC |  | -0.00188 ± 0.52
AUCGAGCAAUAUUACGCUGA | -3.47 ± 0.76 | 
UUUUAGCAAUAUUACGUCCU | -2.91 ± 1.1 | 
CUGCAGCAAUAUUACGAGAU |  | -2.37 ± 0.55
GCCCAGCAAUAUUACGAGGU | -3.81 ± 0.2 | -3.07 ± 0.22
CUGCAGCAAUAUUACGGACC | -5.3 ± 0.36 | -2.18 ± 0.31
CUUGAGCAAUAUUACGACAC | -2.71 ± 0.56 | 
CAAAAGCAAUAUUACGAGCC |  | -1.87 ± 0.56
UCGGAGCAAUAUUACGGUGC | -5.09 ± 1 | -2.74 ± 0.61
CAAGAGCAAUAUUACGUCCC | -4.2 ± 0.52 | 
CUGAAGCAAUAUUACGCCAA |  | -2.54 ± 0.62
AGGAAGCAAUAUUACGCCGC | -1.48 ± 0.76 | -1.03 ± 0.93
CGGGAGCAAUAUUACGAGAU | -4.42 ± 1 | 
UCGGAGCAAUAUUACGGCCG |  | -0.784 ± 0.55
ACGGAGCAAUAUUACGCCAC | -2.9 ± 0.67 | -1.61 ± 0.51
CUUUAGCAAUAUUACGCGAA | -3.26 ± 0.55 | 
GCUUAGCAAUAUUACGCAGC | -2.77 ± 0.76 | -2.39 ± 1.1
UGAUAGCAAUAUUACGAAUC | -2.44 ± 0.63 | -2.88 ± 0.75
GUUGAGCAAUAUUACGGCAG | -3.54 ± 0.54 | -2.75 ± 0.62
UUUGAGCAAUAUUACGAAAG | -4.44 ± 0.51 | 
UUGAAGCAAUAUUACGGUCG | 0.0283 ± 0.088 | 0.283 ± 0.1

Random excerpt: two records from the list.
Sequence | self-splicing fitness (ln) (30 °C) | self-splicing fitness (ln) (37 °C)
UUGGAGCAAUAUUACGACUA |  | -0.0758 ± 0.64
UUGAAGCAAUAUUACGCUGC | -3.03 ± 1.1 | 

The results go on:

Sequence | self-splicing fitness (ln) (30 °C) | self-splicing fitness (ln) (37 °C)
CAAGAGCAAUAUUACGACGU | -2.88 ± 0.23 | -2.57 ± 0.54
CAAAAGCAAUAUUACGCUUA | -3.17 ± 0.23 | -2.17 ± 0.15
CGUCAGCAAUAUUACGUGGC | -4.27 ± 0.59 | -2.25 ± 0.55
AUGAAGCAAUAUUACGGUAC | -1.71 ± 0.14 | -0.139 ± 0.13
CAACAGCAAUAUUACGGCCC | -4.24 ± 0.72 | 
UAAGAGCAAUAUUACGCUAC | -3.31 ± 0.74 | -1 ± 0.92
CCAUAGCAAUAUUACGUCCC | -3.06 ± 1.1 | 
CUGAAGCAAUAUUACGAAUC |  | -1.88 ± 1.2
UGCAAGCAAUAUUACGUCGU | -3.58 ± 0.22 | -1.81 ± 0.17
CAGGAGCAAUAUUACGUGGC | -4.94 ± 1 | 
AGAAAGCAAUAUUACGCCCC |  | -0.661 ± 0.59
UAGGAGCAAUAUUACGGUCG | -2.16 ± 0.61 | -0.623 ± 0.54
GUAAAGCAAUAUUACGCUCC | -3.66 ± 0.73 | 
GGGAAGCAAUAUUACGGACC | -3.81 ± 0.4 | -2.35 ± 0.46
CACGAGCAAUAUUACGGCGC | -5.09 ± 1 | 
CUGUAGCAAUAUUACGAGCU | -4.48 ± 0.73 | -3.09 ± 1
CUAGAGCAAUAUUACGGGGU | -4.73 ± 0.59 | 
CGAGAGCAAUAUUACGGCUA |  | -0.839 ± 0.57
UUCUAGCAAUAUUACGUCAC | -4.66 ± 0.59 | 
CGCGAGCAAUAUUACGUGCG | -4.81 ± 0.59 | 
CUCUAGCAAUAUUACGUAUC | -4.04 ± 1 | -3.04 ± 0.74

From the supplement of paper PMC7877785
